Assay results published in PMC8042123.
No constants are given. Whether binding was seen depends on the method and setting. Binding seen in cells or lysates may run through a third protein. A yes stands for co-enrichment or nearness to the bait. Other partners may have been found.

By UniProt entry, the sequences of proteins in these tests, tags left out. Where a name states a change or a piece, a line headed by the entry shows the natural chain unless it says otherwise.
UniProt Q96524: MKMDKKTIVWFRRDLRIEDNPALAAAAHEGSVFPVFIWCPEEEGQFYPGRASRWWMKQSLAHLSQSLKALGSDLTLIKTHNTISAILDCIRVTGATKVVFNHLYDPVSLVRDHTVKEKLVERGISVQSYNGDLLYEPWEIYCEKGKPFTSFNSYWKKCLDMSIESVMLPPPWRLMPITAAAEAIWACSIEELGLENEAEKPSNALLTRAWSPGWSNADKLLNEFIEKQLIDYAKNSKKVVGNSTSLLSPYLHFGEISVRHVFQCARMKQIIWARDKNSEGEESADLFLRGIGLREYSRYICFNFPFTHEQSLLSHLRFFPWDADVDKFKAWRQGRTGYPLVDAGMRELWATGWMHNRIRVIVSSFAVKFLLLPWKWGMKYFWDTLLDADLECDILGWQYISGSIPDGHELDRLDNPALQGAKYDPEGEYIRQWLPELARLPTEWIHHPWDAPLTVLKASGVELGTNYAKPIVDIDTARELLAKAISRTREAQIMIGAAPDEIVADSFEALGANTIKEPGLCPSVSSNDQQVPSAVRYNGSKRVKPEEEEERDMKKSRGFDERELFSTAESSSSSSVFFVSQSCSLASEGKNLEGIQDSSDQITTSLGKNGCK
UniProt O82343: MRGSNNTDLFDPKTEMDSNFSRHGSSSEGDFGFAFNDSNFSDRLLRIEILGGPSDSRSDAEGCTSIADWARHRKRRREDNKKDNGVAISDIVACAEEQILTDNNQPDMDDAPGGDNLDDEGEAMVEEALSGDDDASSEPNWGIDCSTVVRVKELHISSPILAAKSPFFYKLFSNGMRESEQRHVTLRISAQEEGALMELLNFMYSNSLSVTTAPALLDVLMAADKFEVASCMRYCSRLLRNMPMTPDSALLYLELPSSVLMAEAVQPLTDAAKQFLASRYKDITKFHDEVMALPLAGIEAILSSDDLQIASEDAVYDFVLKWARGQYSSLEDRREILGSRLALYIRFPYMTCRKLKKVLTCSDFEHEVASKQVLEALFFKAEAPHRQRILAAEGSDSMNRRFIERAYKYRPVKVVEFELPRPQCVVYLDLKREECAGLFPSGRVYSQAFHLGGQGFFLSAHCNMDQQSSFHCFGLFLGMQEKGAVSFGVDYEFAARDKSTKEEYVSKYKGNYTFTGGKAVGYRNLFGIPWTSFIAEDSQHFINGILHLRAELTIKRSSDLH

Molecular target: GFP-CRY2 (Arabidopsis thaliana) (UniProt Q96524)
Assay: affinity purification with mass spectrometry; IP-MS of CRY2 complexomes from transgenic Arabidopsis plants overexpressing GFP-CRY2; blue light against dark

- binding: binds
Substance: LRB1 (Light-Response Bric-a-Brack/Tramtrack/Broad 1) (from UniProt O82343)
